Some of the results follow. Repeats are few or missing, and single values can be far off.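 Cells were imaged in 1,536-well plates, and nuclei stained with an antibody against cleaved PARP were counted against all DNA-stained nuclei to give the apoptosis fraction. Screening doses were chosen to leave most cells alive, and resting and induced cleaved-PARP levels differ strongly between cell lines.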
Experiments:
Test in all cases: cleaved PARP positive nuclei fraction relative to DMSO control; melanoma cells; higher = more apoptosis
Conditions in all cases: library dose: low library concentration; 72 h
MZ2-MEL = tested on: MZ2-MEL
MeWo = tested on: MeWo
RPMI7951 = tested on: RPMI7951
RVH-421 = tested on: RVH-421
SkMel28 = tested on: SkMel28
SkMel30 = tested on: SkMel30
SkMel5 = tested on: SkMel5
UACC257 = tested on: UACC257
UACC62 = tested on: UACC62
WM115 = tested on: WM115
WM1716 = tested on: WM1716
WM1745 = tested on: WM1745
WM3526 = tested on: WM3526
WM3619 = tested on: WM3619
WM451Lu = tested on: WM451Lu

Structure (SMILES) | cleaved PARP positive nuclei fraction (MZ2-MEL) | cleaved PARP positive nuclei fraction (MeWo) | cleaved PARP positive nuclei fraction (RPMI7951) | cleaved PARP positive nuclei fraction (RVH-421) | cleaved PARP positive nuclei fraction (SkMel28) | cleaved PARP positive nuclei fraction (SkMel30) | cleaved PARP positive nuclei fraction (SkMel5) | cleaved PARP positive nuclei fraction (UACC257) | cleaved PARP positive nuclei fraction (UACC62) | cleaved PARP positive nuclei fraction (WM115) | cleaved PARP positive nuclei fraction (WM1716) | cleaved PARP positive nuclei fraction (WM1745) | cleaved PARP positive nuclei fraction (WM3526) | cleaved PARP positive nuclei fraction (WM3619) | cleaved PARP positive nuclei fraction (WM451Lu)
C[C@]12O[C@H](C[C@]1(O)CO)n1c3ccccc3c3c4c(c5c6ccccc6n2c5c31)CNC4=O [Lestaurtinib] + CN(C)S(=O)(=O)c1ccc2c(c1)/C(=C/c1cc3c([nH]1)CCCC3)C(=O)N2 [SU6656] (first compound 0.004 µM, partner dose 0.4 µM) | 142% | 131% | 45.7% | 24.5% | 29.9% | 151% | 130% | 147% | 185% | 414% | 53.6% | 109% | 81% | 92.7% | 146%
Cc1cc(SCc2sc(-c3ccc(C(F)(F)F)c(F)c3)nc2C)ccc1OCC(=O)O + Oc1cc(-c2nc(-c3ccccc3)[nH]c2-c2ccncc2)ccc1Cl [L779450] (first compound 2 µM, partner dose 0.2 µM) | 239% | 51.6% | 71.8% | 33.9% | 115% | 419% | 30% | 240% | 328% | 109% | 104% | 114% | 93.5% | 151% | 32.6%
O=C(Nc1ccccc1)c1cc([N+](=O)[O-])ccc1Cl + Cc1cc(SCc2sc(-c3ccc(C(F)(F)F)c(F)c3)nc2C)ccc1OCC(=O)O [GW0742] (first compound 2 µM, partner dose 2 µM) | 110% | 29.1% | 78% | 118% | 141% | 16.2% | 186% | 56% | 90.7% | 74.6% | 140% | 210% | 81% | 83.9% | 31.3%
C[C@]12O[C@H](C[C@]1(O)CO)n1c3ccccc3c3c4c(c5c6ccccc6n2c5c31)CNC4=O [Lestaurtinib] + O=C(Nc1cccc(Cl)c1)Nc1ncc(CCNc2ncnc3ccsc23)s1 [SNS314] (first compound 0.004 µM, partner dose 0.0008 µM) | 74.5% | 67.2% | 38.4% | 92.4% | 235% | 57.2% | 125% | 95.1% | 47.6% | 50% | 145% | 81.6% | 48.4% | 75.5% | 85.1%
Cc1cc(SCc2sc(-c3ccc(C(F)(F)F)c(F)c3)nc2C)ccc1OCC(=O)O + Cc1cc([N+](=O)[O-])ccc1NS(=O)(=O)c1cc(Cl)ccc1Cl [FH535] (first compound 2 µM, partner dose 1 µM) | 121% | 48.9% | 118% | 86.9% | 99.7% | 53.2% | 20.2% | 52.4% | 37.7% | 159% | 104% | 116% | 124% | 84.8% | 18.4%
COCC[n+]1c2c(n(Cc3cnccn3)c1C)C(=O)c1ccccc1C2=O + C/C(O)=C(\C#N)C(=O)Nc1cc(Br)ccc1Br [LFM-A13] (first compound 0.0004 µM, partner dose 2 µM) | 94.1% | 82.9% | 240% | 28.8% | 219% | 54.2% | 87.2% | 281% | 796% | 139% | 148% | 107% | 62.7% | 206% | 89.8%
Cc1cc(SCc2sc(-c3ccc(C(F)(F)F)c(F)c3)nc2C)ccc1OCC(=O)O + Cn1cc(/C=C2\C(=O)Nc3cccnc32)c2ccccc21 [GW441756] (first compound 2 µM, partner dose 0.4 µM) | 41% | 56.6% | 39.2% | 47.7% | 110% | 45.1% | 446% | 135% | 112% | 147% | 44.5% | 111% | 150% | 80.1% | 70.3%
C[As](C)SC[C@H](NC(=O)CC[C@H](N)C(=O)O)C(=O)NCC(=O)O [Darinaparsin] + COc1ccc2c(c1)CCC1C2CCC2(C)C(NCCCCCCN3C(=O)C=CC3=O)CCC12 [U73122] (first compound 0.4 µM, partner dose 0.4 µM) | 106% | 206% | 72.6% | 69.5% | 52.4% | 49.5% | 62.1% | 99.8% | 44% | 76.7% | 149% | 112% | 57.3% | 90.8% | 85.6%
OCCn1cc(-c2cnc3nnn(Cc4ccc5ncccc5c4)c3n2)cn1 + Cc1cc(SCc2sc(-c3ccc(C(F)(F)F)c(F)c3)nc2C)ccc1OCC(=O)O [GW0742] (first compound 1 µM, partner dose 2 µM) | 27.9% | 49.1% | 165% | 41.5% | 191% | 47.3% | 229% | 104% | 40.4% | 29.4% | 74.7% | 93.5% | 113% | 87.2% | 76.9%
Oc1nc(-c2ccc(C(F)(F)F)cc2)nc2c1CSCC2 + O=C(Oc1ccc([N+](=O)[O-])cc1)N1CCC(C(O)(c2ccc3c(c2)OCO3)c2ccc3c(c2)OCO3)CC1 [JZL184] (first compound 2 µM, partner dose 1 µM) | 114% | 144% | 87.6% | 43.8% | 65.4% | 131% | 32% | 151% | 48.6% | 128% | 137% | 140% | 225% | 90.5% | 27.3%
O=C(Oc1ccc([N+](=O)[O-])cc1)N1CCC(C(O)(c2ccc3c(c2)OCO3)c2ccc3c(c2)OCO3)CC1 + CCCCCCCCCCCC1=C(O)C(=O)C=C(O)C1=O [Embelin] (first compound 1 µM, partner dose 1.2 µM) | 87.4% | 28.9% | 160% | 24.9% | 85.1% | 50.3% | 179% | 72.5% | 105% | 64.6% | 177% | 94.2% | 153% | 94.9% | 108%
C[C@]12O[C@H](C[C@]1(O)CO)n1c3ccccc3c3c4c(c5c6ccccc6n2c5c31)CNC4=O [Lestaurtinib] + Cn1cc(/C=C2\C(=O)Nc3cccnc32)c2ccccc21 [GW441756] (first compound 0.004 µM, partner dose 0.4 µM) | 48.7% | 71.6% | 207% | 105% | 134% | 143% | 540% | 356% | 91.3% | 90.8% | 80.8% | 227% | 310% | 159% | 137%
C/C(O)=C(\C#N)C(=O)Nc1cc(Br)ccc1Br + Oc1nc(-c2ccc(C(F)(F)F)cc2)nc2c1CSCC2 [XAV939] (first compound 2 µM, partner dose 2 µM) | 100% | 54.1% | 92.5% | 60.6% | 81.8% | 38% | 37.6% | 124% | 41.9% | 33.1% | 188% | 118% | 65.2% | 87.2% | 47.1%
C/C(O)=C(\C#N)C(=O)Nc1cc(Br)ccc1Br + O=c1cc(-c2cccc3c2Sc2ccccc2S3)oc(N2CCOCC2)c1 [KU55933] (first compound 2 µM, partner dose 1 µM) | 146% | 62.1% | 42.7% | 106% | 77.6% | 41.4% | 52.5% | 224% | 76.8% | 70.5% | 93.4% | 235% | 79.2% | 70.3% | 120%
C[C@]12O[C@H](C[C@]1(O)CO)n1c3ccccc3c3c4c(c5c6ccccc6n2c5c31)CNC4=O [Lestaurtinib] + CC(C)(C)c1cnc(CSc2cnc(NC(=O)C3CCNCC3)s2)o1 [SNS-032] (first compound 0.004 µM, partner dose 0.01 µM) | 152% | 101% | 58.2% | 51.3% | 185% | 57.5% | 169% | 43.2% | 60.4% | 114% | 97.3% | 93.4% | 55.8% | 88.8% | 161%
Cn1nnc2c(C(N)=O)ncn2c1=O [temozolomide] + O=C(Oc1ccc([N+](=O)[O-])cc1)N1CCC(C(O)(c2ccc3c(c2)OCO3)c2ccc3c(c2)OCO3)CC1 [JZL184] (first compound 2 µM, partner dose 1 µM) | 214% | 106% | 98% | 104% | 105% | 70.1% | 61.4% | 116% | 187% | 171% | 107% | 128% | 184% | 93.7% | 80.4%
COc1ccc(-c2ccc3c(N4CCOCC4)nc(N4C[C@@H](C)O[C@@H](C)C4)nc3n2)cc1CO + C/C(O)=C(\C#N)C(=O)Nc1cc(Br)ccc1Br [LFM-A13] (first compound 0.02 µM, partner dose 2 µM) | 154% | 29.4% | 48.3% | 221% | 191% | 23.3% | 109% | 83.3% | 171% | 83.5% | 76.9% | 1230% | 56% | 85% | 64.9%
Cc1nc(Nc2ncc(C(=O)Nc3c(C)cccc3Cl)s2)cc(N2CCN(CCO)CC2)n1 [dasatanib] + C/C(O)=C(\C#N)C(=O)Nc1cc(Br)ccc1Br [LFM-A13] (first compound 0.004 µM, partner dose 2 µM) | 144% | 39.2% | 181% | 45.6% | 66.3% | 30.6% | 128% | 54.7% | 46% | 71% | 160% | 164% | 65.7% | 87.4% | 143%
NC(=O)Nc1cc(-c2cccc(F)c2)sc1C(=O)N[C@H]1CCCNC1 + Cc1cc(SCc2sc(-c3ccc(C(F)(F)F)c(F)c3)nc2C)ccc1OCC(=O)O [GW0742] (first compound 0.02 µM, partner dose 2 µM) | 94.2% | 37.2% | 82.9% | 97.3% | 75.9% | 96.7% | 55.2% | 88.7% | 72.3% | 69.9% | 131% | 99% | 150% | 228% | 64.1%

Five entries from above, as comma-separated lines.
Structure (SMILES),cleaved PARP positive nuclei fraction (MZ2-MEL),cleaved PARP positive nuclei fraction (MeWo),cleaved PARP positive nuclei fraction (RPMI7951),cleaved PARP positive nuclei fraction (RVH-421),cleaved PARP positive nuclei fraction (SkMel28),cleaved PARP positive nuclei fraction (SkMel30),cleaved PARP positive nuclei fraction (SkMel5),cleaved PARP positive nuclei fraction (UACC257),cleaved PARP positive nuclei fraction (UACC62),cleaved PARP positive nuclei fraction (WM115),cleaved PARP positive nuclei fraction (WM1716),cleaved PARP positive nuclei fraction (WM1745),cleaved PARP positive nuclei fraction (WM3526),cleaved PARP positive nuclei fraction (WM3619),cleaved PARP positive nuclei fraction (WM451Lu)
"C[C@]12O[C@H](C[C@]1(O)CO)n1c3ccccc3c3c4c(c5c6ccccc6n2c5c31)CNC4=O [Lestaurtinib] + O=C(Nc1cccc(Cl)c1)Nc1ncc(CCNc2ncnc3ccsc23)s1 [SNS314] (first compound 0.004 µM, partner dose 0.0008 µM)",74.5%,67.2%,38.4%,92.4%,235%,57.2%,125%,95.1%,47.6%,50%,145%,81.6%,48.4%,75.5%,85.1%
"Cc1cc(SCc2sc(-c3ccc(C(F)(F)F)c(F)c3)nc2C)ccc1OCC(=O)O + Cn1cc(/C=C2\C(=O)Nc3cccnc32)c2ccccc21 [GW441756] (first compound 2 µM, partner dose 0.4 µM)",41%,56.6%,39.2%,47.7%,110%,45.1%,446%,135%,112%,147%,44.5%,111%,150%,80.1%,70.3%
"O=C(Oc1ccc([N+](=O)[O-])cc1)N1CCC(C(O)(c2ccc3c(c2)OCO3)c2ccc3c(c2)OCO3)CC1 + CCCCCCCCCCCC1=C(O)C(=O)C=C(O)C1=O [Embelin] (first compound 1 µM, partner dose 1.2 µM)",87.4%,28.9%,160%,24.9%,85.1%,50.3%,179%,72.5%,105%,64.6%,177%,94.2%,153%,94.9%,108%
"COc1ccc(-c2ccc3c(N4CCOCC4)nc(N4C[C@@H](C)O[C@@H](C)C4)nc3n2)cc1CO + C/C(O)=C(\C#N)C(=O)Nc1cc(Br)ccc1Br [LFM-A13] (first compound 0.02 µM, partner dose 2 µM)",154%,29.4%,48.3%,221%,191%,23.3%,109%,83.3%,171%,83.5%,76.9%,1230%,56%,85%,64.9%
"Cc1nc(Nc2ncc(C(=O)Nc3c(C)cccc3Cl)s2)cc(N2CCN(CCO)CC2)n1 [dasatanib] + C/C(O)=C(\C#N)C(=O)Nc1cc(Br)ccc1Br [LFM-A13] (first compound 0.004 µM, partner dose 2 µM)",144%,39.2%,181%,45.6%,66.3%,30.6%,128%,54.7%,46%,71%,160%,164%,65.7%,87.4%,143%

Reference: the supplement of paper PMC4604168 (melanoma cell lines)
